Data set [1] in a line: Photopolymerization of Compound (XIV)/water 50/50 with benzoin isobutyl ether. Format: physicochemical. Conditions: light irradiation 2 hours.
A short description of data set [2]: Polymerization in aqueous solution with K2S2O8. In kind it is physicochemical.

One compound from patent US4736051A, “Process for the preparation of an alkali metal salt of a diester phosphoric acid” (Kao Corporation, priority 1985, dated 1988) can be followed below.

For `C=C(C)C(=O)OCC(O)COP(=O)([O-])OCCCCCCCCCCCC.[Na+]` (centres unmarked) [Compound (XIV), sodium dodecyl 2-hydroxy-3-methacryloyloxypropyl phosphate], the product of photopolymerization entry in data set [1] (50/50 with water, 2% benzoin isobutyl ether, nitrogen) was “colorless transparent rubber-like material”. Further, in data set [1] (thin sample), the “product of photopolymerization, sandwiched between slide glasses” value is given as “colorless transparent film-like material”. For the same compound, in data set [2] (about 10% aqueous solution, 1% K2S2O8, 60° to 70° C., 4 to 5 hours), the “product of polymerization in aqueous solution” value is recorded as “colorless, transparent, highly viscous aqueous solution”. Further, the “gelling of polymer product” value in data set [2] (in water or methanol) is “capable of being gelled in water or methanol”. Besides, the “film formation of polymer product on slide glass” value in data set [2] (placed on slide glass and allowed to stand) is given as “colorless transparent film-like material”.
